This passage reports IC50 results from patent publication US5681863A, “Non-metabolizable clomiphene analogs for treatment of tamoxifen-resistant tumors” (Merrell Pharmaceuticals Inc., priority 1994, dated 1997).

The IC50 is the concentration that gives 50% inhibition.

SMILES strings stand for the structures.

The subject of one assay is MCF-7. Kind of assay: Antiproliferation test, MCF-7 human breast cancer cells (tamoxifen-sensitive). The format is cell-based. To be noted: MCF7, 168 h, 7 days, sulforhodamine dye, 5% fetal bovine serum, read-out: TRIPHENYLETHYLENE IC50's AGAINST BREAST CANCER CELLS, IC50, Cell line MCF-7. The protocol: (§1) Antiproliferation test Procedure:
(§2) The tests were conducted in 96-well microtiter plates. 5×10^3 cells were added to each well. Culture medium and drug solutions were added to wells with a Perkin Elmer Cetus PRO/PETTE. The culture medium was IMEM supplemented with 5% fetal bovine serum. Eight drug concentrations were tested, in duplicate, from 0.078 micromolar (μM) to 10 μM. After four days incubation the medium was replaced with fresh medium containing drug, and after a total of seven days, the cell monolayers were fixed with trichloracetic acid and stained with sulforhodamine dye. Absorbances (492 nm) of the extracted dye solutions were measured with a Titertek Multiscan plate reader.

In another assay the test system is LY2. Nature of the assay: Antiproliferation test, LY-2 human breast cancer cells (MCF-7 variant resistant to tamoxifen). The class given is cell-based. Conditions: MCF7, 168 h, 7 days, sulforhodamine dye, 5% fetal bovine serum, read-out: TRIPHENYLETHYLENE IC50's AGAINST BREAST CANCER CELLS, IC50, Cell line LY2. The protocol:
as §1, §2

Regarding `CC/C(=C(\c1ccccc1)c1ccc(OCCN(C)C)cc1)c1ccccc1` [TAMOXIFEN], the concentration for half-maximal inhibition (IC50) in the assay with MCF-7 is 1.7 µM; in the assay with LY2, 8 µM.
